Data: paper doi:10.1101/2025.11.09.687461
No constants are given. Whether binding was seen depends on the method and setting. Binding seen in cells or lysates may run through a third protein.

Protein sequences, listed by entry. Tags and fused reporters are not part of them. Lines headed by an entry give the natural chain unless they say otherwise; changes in a name come on top. Chains listed by the source or under a name are the forms on record and can include a tag or linker. Residues count along the entry.
UniProt Q04206: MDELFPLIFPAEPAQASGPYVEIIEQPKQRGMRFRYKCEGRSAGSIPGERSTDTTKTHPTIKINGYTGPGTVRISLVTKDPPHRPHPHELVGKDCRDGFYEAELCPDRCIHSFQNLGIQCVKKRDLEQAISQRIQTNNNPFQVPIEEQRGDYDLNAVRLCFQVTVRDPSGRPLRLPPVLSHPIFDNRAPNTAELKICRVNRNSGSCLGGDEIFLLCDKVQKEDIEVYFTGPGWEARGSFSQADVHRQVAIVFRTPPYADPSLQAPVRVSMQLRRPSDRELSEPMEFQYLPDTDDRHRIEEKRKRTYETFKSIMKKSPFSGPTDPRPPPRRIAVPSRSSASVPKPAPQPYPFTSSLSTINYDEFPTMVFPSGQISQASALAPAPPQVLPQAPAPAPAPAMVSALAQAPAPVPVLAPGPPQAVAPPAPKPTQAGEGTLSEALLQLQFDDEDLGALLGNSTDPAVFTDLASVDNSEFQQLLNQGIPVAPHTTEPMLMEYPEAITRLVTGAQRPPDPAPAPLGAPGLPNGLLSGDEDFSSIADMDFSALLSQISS
GFP-tagged mutant p65 R198* (GFP-p65_R198*): residues 1-197 of Q04206
UniProt P19838, residues 1-433: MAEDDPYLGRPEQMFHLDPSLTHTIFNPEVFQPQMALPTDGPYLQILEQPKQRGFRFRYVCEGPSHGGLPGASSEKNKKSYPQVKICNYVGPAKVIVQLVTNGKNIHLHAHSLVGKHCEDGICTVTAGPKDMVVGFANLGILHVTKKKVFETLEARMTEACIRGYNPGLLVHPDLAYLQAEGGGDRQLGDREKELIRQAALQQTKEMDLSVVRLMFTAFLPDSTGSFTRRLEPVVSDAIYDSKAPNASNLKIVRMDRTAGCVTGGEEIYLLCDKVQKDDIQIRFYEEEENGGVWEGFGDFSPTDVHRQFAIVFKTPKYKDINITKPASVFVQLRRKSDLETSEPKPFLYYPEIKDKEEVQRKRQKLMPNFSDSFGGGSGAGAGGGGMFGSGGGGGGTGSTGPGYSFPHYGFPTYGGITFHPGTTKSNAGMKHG

Experiments:
[1] = target: wild type p65 (RELA) (human (endogenous in HEK293T)) (UniProt Q04206); test: co-IP
[2] = target: GFP-tagged mutant p65 R198* (GFP-p65_R198*) (human) (UniProt Q04206); test: co-IP

binding [1] | binding [2] | Substance
no binding |  | GFP-tagged mutant p65 R198* (GFP-p65_R198*) (from UniProt Q04206-1 1-197) (domain or fragment)
 | no binding | p50 (NF-kB1 p105/p50) (from UniProt P19838 1-433)
